These results are taken from paper doi:10.1101/2024.05.31.596839.

These are yes or no findings as the source states them, for the method shown. Binding calls can cover weak binding; strength is not graded here.

To fix the notation:
B1: Mael MUT (ReLo) (protein, UniProt Q9VNS0 1-459)
chain: MAPKKHSGFMMFVNEWRNRNAEGRRMTLAQAVSHCGTIWEKMNTQQRGPYNSGGKDANVAQRAKRESSNGHGQVDKAQREATESLMDMKRTIERLVLNAKMSHDLENAKFVFVAFNYFTKALTTDVYVPAEFAACEYSLKEGIRSIYSTMIDPGQIIFGQGSDALLHSSTTHDLPLPPNALGEKNMTKLYRNIVDYLSKCQGKGKTLVVFTPAENITMVKSCFRYLECDDDFRDGGEKIQVFDIQYLLFILKKEVMNVADLNDEKINKFATDAFFKKDFFEFTAGIACQYHEDNDRTKYCTQSMVTRWAYTFTDFMCGDLAITVQPGKHIPAQTKPNYLIISSYASSLDHESSFDSFYSLPGSGVKKESQPEACSLSSSRLSVASSSYKPIDHTSFAANLNEVSEFPSLGMRNSSKHHGIAASAQREWNARNLPTHSRLIRKESDNDESENGADGKLKK
B2: KrimperΔ483-494 (protein, UniProt A1ZAC4)
chain: MNLEDISMIMKLFDSNMHKLQGNLRSYQTEMHQIHKELTEKLSHADLLYRSLIPLHDHLVASLSEVNAHVMKLNVQLHINRQSVRLGDYEYYEKSIDNPYSSIRSGLQAIEKPGCAEAICQSSKPAFVECLPSSTSEEVPVVAVQEASSTNQLDAISVVNENLSEERDATPQPLAVSKNMEETMPSNPFHEQLEGSLEEIPVGSKIVVETEKANNPVRSEASAPATSDNQSLLAAKQGTQTIGTGICNKISKSTINMPNNWQLENPTEVTAASIEKVNKLPKSPRNRFLLPPKGGTETTRRDIYNQILKDMAAFPENTIVTAVLASVDVTDNCAYVAKWDESSDRIKKVLQRQLPLQELDQLPDYGDIFAVLDSINNIITRITINSSSAGGGYDAYLIDFGEHIHFDGNETIFKLPDDIKRLPAQAIRCDLINCDIANMHCFVNTYIKIRVHENNNSTLVAEPVIDRLSRPTKTNTTKYPAGDESTSDPLKAVLGFRPKDEQRICRHYDPKLNGCFKGNNCRFAHEPFAPNGATKDVELARALPETIFDTTVHFEIGSIVGILITFINGPTEVYGQFLDGSPPLVWDKKDVPENKRTFKSKPRLLDIVLALYSDGCFYRAQIIDEFPSEYMIFYVDYGNTEFVPLSCLAPCENVDSFKPHRVFSFHIEGIVRSKNLTHQKTIECIEYLKSKLLNTEMNVHLVQRLPDGFLIRFLDDWKYIPEQLLQRNYAQVSQ
B3: KrimpΔ462-552 (protein, UniProt A1ZAC4)
chain: MNLEDISMIMKLFDSNMHKLQGNLRSYQTEMHQIHKELTEKLSHADLLYRSLIPLHDHLVASLSEVNAHVMKLNVQLHINRQSVRLGDYEYYEKSIDNPYSSIRSGLQAIEKPGCAEAICQSSKPAFVECLPSSTSEEVPVVAVQEASSTNQLDAISVVNENLSEERDATPQPLAVSKNMEETMPSNPFHEQLEGSLEEIPVGSKIVVETEKANNPVRSEASAPATSDNQSLLAAKQGTQTIGTGICNKISKSTINMPNNWQLENPTEVTAASIEKVNKLPKSPRNRFLLPPKGGTETTRRDIYNQILKDMAAFPENTIVTAVLASVDVTDNCAYVAKWDESSDRIKKVLQRQLPLQELDQLPDYGDIFAVLDSINNIITRITINSSSAGGGYDAYLIDFGEHIHFDGNETIFKLPDDIKRLPAQAIRCDLINCDIANMHCFVNTYIKIRVHENNNSTLVARALPETIFDTTVHFEIGSIVGILITFINGPTEVYGQFLDGSPPLVWDKKDVPENKRTFKSKPRLLDIVLALYSDGCFYRAQIIDEFPSEYMIFYVDYGNTEFVPLSCLAPCENVDSFKPHRVFSFHIEGIVRSKNLTHQKTIECIEYLKSKLLNTEMNVHLVQRLPDGFLIRFLDDWKYIPEQLLQRNYAQVSQ
B4: KrimpΔ1-83 (domain or fragment, UniProt A1ZAC4 84-746)
chain: VRLGDYEYYEKSIDNPYSSIRSGLQAIEKPGCAEAICQSSKPAFVECLPSSTSEEVPVVAVQEASSTNQLDAISVVNENLSEERDATPQPLAVSKNMEETMPSNPFHEQLEGSLEEIPVGSKIVVETEKANNPVRSEASAPATSDNQSLLAAKQGTQTIGTGICNKISKSTINMPNNWQLENPTEVTAASIEKVNKLPKSPRNRFLLPPKGGTETTRRDIYNQILKDMAAFPENTIVTAVLASVDVTDNCAYVAKWDESSDRIKKVLQRQLPLQELDQLPDYGDIFAVLDSINNIITRITINSSSAGGGYDAYLIDFGEHIHFDGNETIFKLPDDIKRLPAQAIRCDLINCDIANMHCFVNTYIKIRVHENNNSTLVAEPVIDRLSRPTKTNTTKYPAGITEDDMAMLNEIDESTSDPLKAVLGFRPKDEQRICRHYDPKLNGCFKGNNCRFAHEPFAPNGATKDVELARALPETIFDTTVHFEIGSIVGILITFINGPTEVYGQFLDGSPPLVWDKKDVPENKRTFKSKPRLLDIVLALYSDGCFYRAQIIDEFPSEYMIFYVDYGNTEFVPLSCLAPCENVDSFKPHRVFSFHIEGIVRSKNLTHQKTIECIEYLKSKLLNTEMNVHLVQRLPDGFLIRFLDDWKYIPEQLLQRNYAQVSQ
B5: KrimpΔ551-746 (domain or fragment, UniProt A1ZAC4 1-550)
chain: MNLEDISMIMKLFDSNMHKLQGNLRSYQTEMHQIHKELTEKLSHADLLYRSLIPLHDHLVASLSEVNAHVMKLNVQLHINRQSVRLGDYEYYEKSIDNPYSSIRSGLQAIEKPGCAEAICQSSKPAFVECLPSSTSEEVPVVAVQEASSTNQLDAISVVNENLSEERDATPQPLAVSKNMEETMPSNPFHEQLEGSLEEIPVGSKIVVETEKANNPVRSEASAPATSDNQSLLAAKQGTQTIGTGICNKISKSTINMPNNWQLENPTEVTAASIEKVNKLPKSPRNRFLLPPKGGTETTRRDIYNQILKDMAAFPENTIVTAVLASVDVTDNCAYVAKWDESSDRIKKVLQRQLPLQELDQLPDYGDIFAVLDSINNIITRITINSSSAGGGYDAYLIDFGEHIHFDGNETIFKLPDDIKRLPAQAIRCDLINCDIANMHCFVNTYIKIRVHENNNSTLVAEPVIDRLSRPTKTNTTKYPAGITEDDMAMLNEIDESTSDPLKAVLGFRPKDEQRICRHYDPKLNGCFKGNNCRFAHEPFAPNGATKDVE
B6: KrimpΔ285-461 (protein, UniProt A1ZAC4)
chain: MNLEDISMIMKLFDSNMHKLQGNLRSYQTEMHQIHKELTEKLSHADLLYRSLIPLHDHLVASLSEVNAHVMKLNVQLHINRQSVRLGDYEYYEKSIDNPYSSIRSGLQAIEKPGCAEAICQSSKPAFVECLPSSTSEEVPVVAVQEASSTNQLDAISVVNENLSEERDATPQPLAVSKNMEETMPSNPFHEQLEGSLEEIPVGSKIVVETEKANNPVRSEASAPATSDNQSLLAAKQGTQTIGTGICNKISKSTINMPNNWQLENPTEVTAASIEKVNKLPKSPEPVIDRLSRPTKTNTTKYPAGITEDDMAMLNEIDESTSDPLKAVLGFRPKDEQRICRHYDPKLNGCFKGNNCRFAHEPFAPNGATKDVELARALPETIFDTTVHFEIGSIVGILITFINGPTEVYGQFLDGSPPLVWDKKDVPENKRTFKSKPRLLDIVLALYSDGCFYRAQIIDEFPSEYMIFYVDYGNTEFVPLSCLAPCENVDSFKPHRVFSFHIEGIVRSKNLTHQKTIECIEYLKSKLLNTEMNVHLVQRLPDGFLIRFLDDWKYIPEQLLQRNYAQVSQ
B7: Maelstrom with the TIR deleted (ReLo) (domain or fragment, UniProt Q9VNS0 1-412)
chain: MAPKKHSGFMMFVNEWRNRNAEGRRMTLAQAVSHCGTIWEKMNTQQRGPYNSGGKDANVAQRAKRESSNGHGQVDKAQREATESLMDMKRTIERLVLNAKMSHDLENAKFVFVAFNYFTKALTTDVYVPAEFAACEYSLKEGIRSIYSTMIDPGQIIFGQGSDALLHSSTTHDLPLPPNALGEKNMTKLYRNIVDYLSKCQGKGKTLVVFTPAENITMVKSCFRYLECDDDFRDGGEKIQVFDIQYLLFILKKEVMNVADLNDEKINKFATDAFFKKDFFEFTAGIACQYHEDNDRTKYCTQSMVTRWAYTFTDFMCGDLAITVQPGKHIPAQTKPNYLIISSYASSLDHESSFDSFYSLPGSGVKKESQPEACSLSSSRLSVASSSYKPIDHTSFAANLNEVSEFPSLGMR
B8: KrimpΔ84-284 (protein, UniProt A1ZAC4)
chain: MNLEDISMIMKLFDSNMHKLQGNLRSYQTEMHQIHKELTEKLSHADLLYRSLIPLHDHLVASLSEVNAHVMKLNVQLHINRQSRNRFLLPPKGGTETTRRDIYNQILKDMAAFPENTIVTAVLASVDVTDNCAYVAKWDESSDRIKKVLQRQLPLQELDQLPDYGDIFAVLDSINNIITRITINSSSAGGGYDAYLIDFGEHIHFDGNETIFKLPDDIKRLPAQAIRCDLINCDIANMHCFVNTYIKIRVHENNNSTLVAEPVIDRLSRPTKTNTTKYPAGITEDDMAMLNEIDESTSDPLKAVLGFRPKDEQRICRHYDPKLNGCFKGNNCRFAHEPFAPNGATKDVELARALPETIFDTTVHFEIGSIVGILITFINGPTEVYGQFLDGSPPLVWDKKDVPENKRTFKSKPRLLDIVLALYSDGCFYRAQIIDEFPSEYMIFYVDYGNTEFVPLSCLAPCENVDSFKPHRVFSFHIEGIVRSKNLTHQKTIECIEYLKSKLLNTEMNVHLVQRLPDGFLIRFLDDWKYIPEQLLQRNYAQVSQ
B9: Krimper MUT (protein, UniProt A1ZAC4 1-746)
chain: MNLEDISMIMKLFDSNMHKLQGNLRSYQTEMHQIHKELTEKLSHADLLYRSLIPLHDHLVASLSEVNAHVMKLNVQLHINRQSVRLGDYEYYEKSIDNPYSSIRSGLQAIEKPGCAEAICQSSKPAFVECLPSSTSEEVPVVAVQEASSTNQLDAISVVNENLSEERDATPQPLAVSKNMEETMPSNPFHEQLEGSLEEIPVGSKIVVETEKANNPVRSEASAPATSDNQSLLAAKQGTQTIGTGICNKISKSTINMPNNWQLENPTEVTAASIEKVNKLPKSPRNRFLLPPKGGTETTRRDIYNQILKDMAAFPENTIVTAVLASVDVTDNCAYVAKWDESSDRIKKVLQRQLPLQELDQLPDYGDIFAVLDSINNIITRITINSSSAGGGYDAYLIDFGEHIHFDGNETIFKLPDDIKRLPAQAIRCDLINCDIANMHCFVNTYIKIRVHENNNSTLVAEPVIDRLSRPTKTNTTKYPAGETEDDMAMENEEDESTSDPLKAVLGFRPKDEQRICRHYDPKLNGCFKGNNCRFAHEPFAPNGATKDVELARALPETIFDTTVHFEIGSIVGILITFINGPTEVYGQFLDGSPPLVWDKKDVPENKRTFKSKPRLLDIVLALYSDGCFYRAQIIDEFPSEYMIFYVDYGNTEFVPLSCLAPCENVDSFKPHRVFSFHIEGIVRSKNLTHQKTIECIEYLKSKLLNTEMNVHLVQRLPDGFLIRFLDDWKYIPEQLLQRNYAQVSQ

For this test, the target named is Tejas (Drosophila). In words: ReLo.
Turning to B1, the binding entry is on record as “no binding”.
With B2 the entry was “binds”.
With B3 the entry was “no binding”; with B4, “no binding”; with B5, “no binding”.
In the case of B6, the binding result is “binds”.
With B7 the entry was “no binding”; with B8, “binds”.
With B9 the entry was “binds”.
